# Where two headings read alike, the source gives them in different places.
# Tested on: antibody raised to azomorphine conjugate (crude antisera)
# Assay type: binding
# Procedure: After 2 hours, an equal volume of a neutral, saturated ammonium sulfate solution was added. The resulting precipitates, sedimented by centrifugation at 3000 rpm for 15 minutes at 4° C, were washed once in 50% saturated ammonium sulphate solution. Each precipitate was dissolved in 0.2 ml NCS solubilizer (Amersham-Searle Corp.) and transferred to a scintillation counting vial containing 10 ml. Aquasol dispersant (New England Nuclear Corp.) and counted in a Nuclear Chicago Liquid Scintillation Spectrometer.
# Cross-reactivity was computed by the method of Abraham, J. Clin. Endocrin. & Metab.
smiles,measurement,setting,value
"CN1CC[C@]23c4c5ccc(O)c4O[C@H]2[C@@H](O)C=C[C@H]3[C@H]1C5 [Morphine, morphine]",% Inhibition of Dihydromorphine H^3 Binding,0.75 ng unlabeled morphine added,51%
same,% Inhibition of Dihydromorphine H^3 Binding,1.0 ng unlabeled morphine added,59%
same,% Inhibition of Dihydromorphine H^3 Binding,10.0 ng unlabeled morphine added,95%
